The list shows a part of the results.
What follows are molecules tested on T1, CTL2-GFP (C. trachomatis L2/434/Bu, GFP-expressing). Conditions: bulk GFP, single well; 28.5 h, 10 µM; inhibitor.
T1 construct: L2/434/Bu, GFP-expressing
Set-up: species or system HeLa; Intracellular C. trachomatis growth in HeLa cells, bulk GFP fluorescence relative to DMSO

Row | Compound | % of control remaining
1 | Nc1ccc(-c2cn3ccnc3c(Nc3ccc(Cl)cc3)n2)cc1 [CBK066453] | 208.082%
2 | Cc1nn(C)cc1C(C)NC(=O)c1ccc(CN(C)C)o1 (stereo not shown) [CBK282083] | 106.282%
3 | O=C(O)c1ccc(N2C(=O)CC(N3CCN(Cc4ccc5c(c4)OCO5)CC3)C2=O)cc1 (stereo not shown) [CBK074573] | 104.143%
4 | CN1CCCC(NC(=O)C2CCN(Cc3ccc(F)cc3)CC2)C1 (stereo not shown) [CBK282516] | 102.454%
5 | O=C(c1ccno1)N1C[C@@H]2OCC(=O)N(CC3CC3)[C@@H]2C1 [CBK289680] | 141.208%
6 | Cc1cc(C(=O)CSc2nnc(CN3CCCC3)o2)c(C)n1C1CC1 [CBK306199] | 160.805%
7 | CC(C)c1ccc(CN2CCC3(CC2)CN(CCO)c2ccccc23)cc1 [CBK122708] | 123.622%
8 | Cc1cc(C)cc(Cn2cc(NCc3ccccc3)c(=O)[nH]c2=O)c1 [CBK288009] | 118.025%
9 | O=C(NCCNc1cnccn1)c1cc(F)cc(Br)c1 [CBK304554] | 101.997%
10 | Cc1ccc(NC(=O)N(Cc2ccc(-c3ccccc3)cc2)CC(C)(C)CN)cc1[N+](=O)[O-] [CBK002439C] | 53.1183%
11 | COc1ccc(OC)c(S(=O)(=O)N2CCN(c3ncccn3)CC2)c1 [CBK008662] | 129.661%
12 | Cc1cc(C(=O)O)c(C)cc1N [CBK022781] | 102.351%
13 | CCC(CC)C(=O)N1C[C@H]2CCc3nnc(-c4ccccc4)n3[C@H]2C1 [CBK283439] | 182.509%
14 | CC(=O)Nc1ccc(S(=O)(=O)Nc2nnc(CC(C)(C)C)s2)cc1 [CBK049910] | 135.181%
15 | COc1ccc(-c2cc3n[nH]c(=O)n3c(C)n2)cc1 [CBK288439] | 148.647%
16 | CCCc1n[nH]c(O)c1Cc1ccc(OCCCN(C)C)cc1 [CBK116249A] | 112.885%
17 | Cc1cc(=O)oc2cc(NC(=S)NNC(=O)C(C)Sc3nc4ccccc4s3)ccc12 (stereo not shown) [CBK267056] | 145.188%
18 | Cc1cccc(CC(=O)N2CCC(Cc3ccccc3-c3ccccc3C)(C(N)=O)CC2)c1 [CBK285728] | 112.375%
19 | CCOC(=O)N1CCC(NS(=O)(=O)c2ccc(Cl)c(Cl)c2Cl)CC1 [CBK045471] | 154.517%
20 | COC(=O)c1sc2cc(C(F)(F)F)cnc2c1-c1ccccn1 [CBK089888] | 108.772%
21 | CCOC(=O)CCCCCCC(=O)N1CCN(c2ccc(C(F)(F)F)cc2)CC1 [CBK091327] | 122.641%
22 | O=C(COc1cccc2ccccc12)Nc1ccc(O)cc1 [CBK266002] | 114.853%
23 | COc1ccccc1C(=O)CN1CCC2(CC1)OCCc1c2[nH]c2ccc(F)cc12 [CBK040238] | 177.678%
24 | O=C(Nc1ccc(SC(F)F)cc1)c1cc(-c2ccncc2)nc2ccccc12 [CBK296092] | 162.369%
25 | Cc1nc(NS(=O)(=O)c2cccc(Cl)c2C)sc1C(=O)O [CBK045561] | 81.874%
26 | Cc1c(Cl)c([N+](=O)[O-])nn1CC(=O)N1CCN(C)CC1 [CBK261719] | 104.691%
27 | O=C(Nc1cc(N2CCNCC2)ncn1)c1ccccc1 [CBK004215T] | 150.693%

Row | Compound | % of control remaining
28 | Cc1ccc(-c2nn3c(C)nnc3c3ccccc23)cc1S(N)(=O)=O [CBK268342] | 127.924%
29 | O=C(Cc1ccc(Br)cc1)Nc1cc(C(=O)O)cc(C(=O)O)c1 [CBK268228] | 159.571%
30 | CCOC(=O)c1c(NC(=O)Cc2ccccc2)sc2c1CCC2 [CBK262309] | 115.871%
31 | Cc1ccc(-n2ncc3c(=O)n(CC(=O)Nc4ccccc4)cnc32)cc1C [CBK287539] | 133.294%
32 | CN1CCN(c2ccccc2NC(=O)c2ccc3c(c2)OCCO3)CC1 [CBK268072] | 120.739%
33 | O=C(C1CC2C=CC1C21CC1)N1CCN(Cc2ccccn2)CC1 (stereo not shown) [CBK281443] | 128.813%
34 | O=C(c1cnc(-c2ccccc2)c(-c2cccnc2)c1)N1CCC(S(=O)(=O)c2ccccc2)C1 (stereo not shown) [CBK036685] | 139.95%
35 | Cc1nc(C)c(-c2csc(CC(C)n3cc(Cl)cn3)n2)o1 (stereo not shown) [CBK304710] | 128.011%
36 | O=C(O)CCn1c(SCCc2ccccc2)nc2ccccc21 [CBK262384] | 94.059%
37 | CN1C[C@@H](NC(=O)c2ccc3c(c2)OCO3)C[C@H]1c1nc(-c2ccccc2)no1 [CBK288876] | 117.071%
38 | O=C(N/N=C/c1ccc(C(=O)O)cc1)C(=O)Nc1cccc(Br)c1 [CBK262185] | 100%
39 | C#CCNC(=O)CC[C@H]1CNC(=O)[C@@H]2[C@@H](CCN2Cc2nc3ccccc3n2C)N1C [CBK289018] | 134.372%
40 | COc1ccc(OC)c(C(=O)c2coc3ccc(OCC(=O)O)cc23)c1 [CBK111288] | 104.057%
41 | c1ccc2c(c1)CCC2Oc1cncc(N2CCNCC2)n1 (stereo not shown) [CBK200005G] | 102.578%
42 | FC(F)(F)c1cnc(Sc2c[nH]nn2)c(Cl)c1 [CBK007252] | 127.191%
43 | CC(=O)N1C[C@@H](c2cccc(C)c2)[C@@H]2CN(Cc3ccncc3)CC[C@@H]21 [CBK283370] | 113.023%
44 | O=C(c1ccc(OC(F)(F)F)cc1)N1CCC2(CCN(Cc3ccccc3)CC2)C1 [CBK136746] | 123.746%
45 | Cc1csc(C(Cc2ccsc2)NC(=O)c2ccnn2C)n1 (stereo not shown) [CBK285107] | 86.5667%
46 | O=C(NC(c1ccc(Cl)cc1)c1cccnc1)C1CCN(C(=O)c2ccco2)CC1 (stereo not shown) [CBK059708] | 98.6334%
47 | CCC#CC(=O)Nc1ccccc1N1CCCNCC1 [CBK024291T] | 96.9792%
48 | COc1cncc(-c2cc(Nc3ccc(NS(=O)(=O)c4ccc(C)cc4)cc3)ncn2)c1 [CBK090988] | 237.549%
49 | CCn1c(-c2ccc(C)cc2)cnc1SCC(=O)N1CCN(C(C)=O)CC1 [CBK296925] | 127.661%
50 | CC(NC(=O)C1CCN(C2Cc3ccccc3C2)CC1)c1ccccc1 (stereo not shown) [CBK148031] | 169.656%
51 | O=C(c1ccncc1)N1CCN(S(=O)(=O)c2ccccc2[N+](=O)[O-])CC1 [CBK264196] | 96.7912%
52 | CC1CCCC(C)N1C(=O)Cn1ncn2c(cc3ccsc32)c1=O (stereo not shown) [CBK284191] | 85.9548%
53 | CC(=O)c1c(C)nc2nc(-c3ccncc3)nn2c1C [CBK288552] | 101.192%
54 | O=C(NNC(=O)c1cccnc1)c1ccc(NC(=O)c2ccco2)cc1 [CBK266792] | 100.624%

Six records picked at random from those above:
Row | Compound | % of control remaining
30 | CCOC(=O)c1c(NC(=O)Cc2ccccc2)sc2c1CCC2 [CBK262309] | 115.871%
49 | CCn1c(-c2ccc(C)cc2)cnc1SCC(=O)N1CCN(C(C)=O)CC1 [CBK296925] | 127.661%
43 | CC(=O)N1C[C@@H](c2cccc(C)c2)[C@@H]2CN(Cc3ccncc3)CC[C@@H]21 [CBK283370] | 113.023%
48 | COc1cncc(-c2cc(Nc3ccc(NS(=O)(=O)c4ccc(C)cc4)cc3)ncn2)c1 [CBK090988] | 237.549%
46 | O=C(NC(c1ccc(Cl)cc1)c1cccnc1)C1CCN(C(=O)c2ccco2)CC1 (stereo not shown) [CBK059708] | 98.6334%
35 | Cc1nc(C)c(-c2csc(CC(C)n3cc(Cl)cn3)n2)o1 (stereo not shown) [CBK304710] | 128.011%

More compounds

Row | Compound | % of control remaining
55 | CCOC(=O)N1CCN(C(=O)Nc2ccc3oc(=O)n(C)c3c2)CC1 [CBK306250] | 130.32%
56 | N#CCCN(Cc1ccco1)C(=O)c1ccc(OCC2CC2)cc1 [CBK304051] | 121.46%
57 | CC(NC(=O)c1ccc(-c2ccccc2F)s1)C(=O)N1CCCCC1 (stereo not shown) [CBK305740] | 87.8074%
58 | COc1cccc(CN2CCc3cc(OC)c(OC)cc3C2)c1 [CBK126441] | 101.153%
59 | Sc1nncn1NCc1cc(Cl)ccc1OCc1ccccc1 [CBK265752] | 121.86%
60 | Cc1ccc(S(=O)(=O)N[C@H]2CO[C@H]3[C@@H]2OC[C@H]3O)cc1 [CBK289477] | 107.264%
61 | COc1ccc(NC(=O)c2ccc3ncsc3c2)cc1 [CBK287368] | 95.7493%
62 | Cc1cc(=O)c2ccccc2n1CC(=O)N(C)CC1CCCCO1 (stereo not shown) [CBK306960] | 180.332%
63 | O=C(O)CCCC(=O)NCc1cccnc1 [CBK261708] | 100%
64 | CC(C)Nc1cncc(Sc2cccc(C(=O)O)c2)n1 [CBK093582] | 106.653%
65 | C=CCOc1ccc(Cl)cc1C(=O)NCc1c(C)n[nH]c1C [CBK282587] | 95.3925%
66 | CN(Cc1ccncc1)C(=O)c1cccc(S(=O)(=O)NCC2CC2)c1 [CBK305365] | 100.23%
67 | Cc1cc(C)n(CCNC(=O)N2CCC(Oc3cccnc3)CC2)n1 [CBK306719] | 117.275%
68 | CN1CCC(N(C)C(=O)NCCc2c[nH]c3ccccc23)C1 (stereo not shown) [CBK156012] | 112.507%
69 | CC(C)Cn1c(=O)[nH]c2ncc(-c3cccc4cccnc34)nc21 [CBK064400] | 120.706%
70 | CN(C)S(=O)(=O)NC1CC(C)(C)Cc2c1cnn2-c1ccccc1 (stereo not shown) [CBK307533] | 125.326%
71 | Nc1cc(-c2ccco2)nn(Cc2c(Cl)cccc2Cl)c1=O [CBK282880] | 76.1599%
72 | O=C(Nc1ccccc1N1CCOCC1)c1cccc(OCc2ccccc2)c1 [CBK270011] | 121.102%
73 | COc1cccc(CN2CCCC(NC(=O)c3cn4ccsc4n3)C2)c1 (stereo not shown) [CBK307204] | 123.1%
74 | O=C(Cc1n[nH]c(=O)[nH]c1=O)N/N=C/c1cccc(Br)c1 [CBK263086] | 100%
75 | O=C(NC(c1ccc(F)cc1)c1cnccn1)C1CCN(C(=O)c2ccco2)CC1 (stereo not shown) [CBK059956] | 105.396%
76 | Cc1nc(SCCN2C(=O)c3ccccc3S2(=O)=O)c2ccccc2n1 [CBK296958] | 139.092%
77 | O=C(NC(c1ccc(F)cc1)c1ccccn1)C1CCN(C(=O)c2ccno2)CC1 (stereo not shown) [CBK059705] | 134.681%
78 | O=C1CCC(=O)N1CC(O)Cn1c2ccc(Cl)cc2c2cc(Cl)ccc21 (stereo not shown) [CBK262222] | 100%
79 | CC1CCCCN1C(=O)C1C2CCC3(CC(=O)c4ccccc4O3)C21 (stereo not shown) [CBK284960] | 126.176%

— publication PMC12040169 (PLOS Biology, 2025)
